This passage reports binding results from article PMC5441899.

The chains are these.
T1: bHLH115-cYFP (full-length bHLH115 fused with the C-terminal of YFP) (Arabidopsis thaliana) (UniProt Q9C682)
T1 sequence: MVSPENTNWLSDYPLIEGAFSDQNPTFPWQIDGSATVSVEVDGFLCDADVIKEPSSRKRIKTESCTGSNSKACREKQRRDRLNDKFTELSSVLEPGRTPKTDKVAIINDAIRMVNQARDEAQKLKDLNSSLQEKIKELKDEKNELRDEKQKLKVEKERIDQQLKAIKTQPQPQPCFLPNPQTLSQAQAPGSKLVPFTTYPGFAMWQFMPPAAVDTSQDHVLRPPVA

B1: bHLH105-nYFP (full-length bHLH105 fused with the N-terminal of YFP) (protein, UniProt Q9FH37 1-234)
chain: MVSPENANWICDLIDADYGSFTIQGPGFSWPVQQPIGVSSNSSAGVDGSAGNSEASKEPGSKKRGRCESSSATSSKACREKQRRDRLNDKFMELGAILEPGNPPKTDKAAILVDAVRMVTQLRGEAQKLKDSNSSLQDKIKELKTEKNELRDEKQRLKTEKEKLEQQLKAMNAPQPSFFPAPPMMPTAFASAQGQAPGNKMVPIISYPGVAMWQFMPPASVDTSQDHVLRPPVA
B2: BTS-nYFP (BRUTUS fused with the N-terminal of YFP) (protein, UniProt Q8LPQ5 1-1254)
chain: MATPLPDFETARGGGAVASSSTTVLPSSVSSSSSSSRPLPVANSFSDDAEEISPILIFLFFHKAVCSELEALHRLALEFATGHHVDLRLLRERYRFLRSIYKHHCNAEDEVIFSALDIRVKNVAQTYSLEHKGESNLFDHLFELLNSATETDESYRRELARSTGALQTSVSQHLAKEQKQVFPLLIEKFKYEEQAYIVWRFLCSIPVNMLAVFLPWISSSISVDESKEMQTCLKKIVPGEKLLQQVIFTWLGGKSNTVASCRIEDSMFQCCLDSSSSMLPCKASREQCACEGSKIGKRKYPELTNFGSSDTLHPVDEIKLWHKSINKEMKEIADEARKIQLSGDFSDLSAFDERLQYIAEVCIFHSLAEDKIIFPAVDGEFSFSEEHDEEENQFNEFRCLIENIKSAGASSTSAAEFYTKLCSHADQIMETIQRHFHNEEIQVLPLARKNFSFKRQQELLYQSLCIMPLRLIERVLPWLTASLTEDEAKNFLKNLQAGAPKSDVALVTLFSGWACKGRKAGECLSPNGNGLCPVKTLSNIKEVNLQSCNACASVPCTSRSTKSCCQHQDKRPAKRTAVLSCEKKTTPHSTEVANGCKPSGNGRSCCVPDLGVNNNCLELGSLPAAKAMRSSSLNSAAPALNSSLFIWEMDSNSFGTGHAERPVATIFKFHKAISKDLEFLDVESGKLIDCDGTFIRQFIGRFHLLWGFYKAHSNAEDDILFPALESKETLHNVSHSYTLDHKQEEKLFGDIYSVLTELSILHEKLQSDSMMEDIAQTDTVRTDIDNGDCNKKYNELATKLQGMCKSIKITLDQHIFLEELELWPLFDKHFSIQEQDKIVGRIIGTTGAEVLQSMLPWVTSALSEDEQNRMMDTWKQATKNTMFDEWLNECWKGSPDSSSTETSKPSPQKDNDHQEILDQSGELFKPGWKDIFRMNQNELEAEIRKVYQDSTLDPRRKDYLVQNWRTSRWIAAQQKLPKEAETAVNGDVELGCSPSFRDPEKQIYGCEHYKRNCKLRAACCDQLFTCRFCHDKVSDHSMDRKLVTEMLCMRCLKVQPVGPICTTPSCDGFPMAKHYCSICKLFDDERAVYHCPFCNLCRVGEGLGIDFFHCMTCNCCLGMKLVNHKCLEKSLETNCPICCEFLFTSSEAVRALPCGHYMHSACFQAYTCSHYTCPICGKSLGDMAVYFGMLDALLAAEELPEEYKNRCQDILCNDCERKGTTRFHWLYHKCGSCGSYNTRVIKSETIPPDCSTSS
B3: bHLH34-nYFP (full-length bHLH34 fused with the N-terminal of YFP) (protein, UniProt Q9LTC7 1-320)
chain: MYPSIEDDDDLLAALCFDQSNGVEDPYGYMQTNEDNIFQDFGSCGVNLMQPQQEQFDSFNGNLEQVCSSFRGGNNGVVYSSSIGSAQLDLAASFSGVLQQETHQVCGFRGQNDDSAVPHLQQQQGQVFSGVVEINSSSSVGAVKEEFEEECSGKRRRTGSCSKPGTKACREKLRREKLNDKFMDLSSVLEPGRTPKTDKSAILDDAIRVVNQLRGEAHELQETNQKLLEEIKSLKADKNELREEKLVLKAEKEKMEQQLKSMVVPSPGFMPSQHPAAFHSHKMAVAYPYGYYPPNMPMWSPLPPADRDTSRDLKNLPPVA
B4: bHLH115-nYFP (full-length bHLH115 fused with the N-terminal of YFP) (protein, UniProt Q9C682 1-226)
chain: MVSPENTNWLSDYPLIEGAFSDQNPTFPWQIDGSATVSVEVDGFLCDADVIKEPSSRKRIKTESCTGSNSKACREKQRRDRLNDKFTELSSVLEPGRTPKTDKVAIINDAIRMVNQARDEAQKLKDLNSSLQEKIKELKDEKNELRDEKQKLKVEKERIDQQLKAIKTQPQPQPCFLPNPQTLSQAQAPGSKLVPFTTYPGFAMWQFMPPAAVDTSQDHVLRPPVA
B5: bHLH104-nYFP (full-length bHLH104 fused with the N-terminal of YFP) (protein, UniProt Q8L467 1-283)
chain: MYPSLDDDFVSDLFCFDQSNGAELDDYTQFGVNLQTDQEDTFPDFVSYGVNLQQEPDEVFSIGASQLDLSSYNGVLSLEPEQVGQQDCEVVQEEEVEINSGSSGGAVKEEQEHLDDDCSRKRARTGSCSRGGGTKACRERLRREKLNERFMDLSSVLEPGRTPKTDKPAILDDAIRILNQLRDEALKLEETNQKLLEEIKSLKAEKNELREEKLVLKADKEKTEQQLKSMTAPSSGFIPHIPAAFNHNKMAVYPSYGYMPMWHYMPQSVRDTSRDQELRPPAA

No constants are given. Whether binding was seen depends on the method and setting. In cells and extracts the contact can be indirect. Some entries that bind do so weakly or less than the wild type. Sequences can lack the tags named with a protein.

The target of this assay is T1, bHLH115-cYFP (full-length bHLH115 fused with the C-terminal of YFP) (Arabidopsis thaliana). Kind of assay: split reporter; BiFC: cYFP and nYFP fusions transiently co-expressed in N. benthamiana leaf cells by Agrobacterium infiltration; YFP and DAPI fluorescence observed by confocal microscopy.
Turning to B1, the binding result is reported as “binds”.

For the molecule B2, the binding entry was “binds”.

Consider B3, for which the binding result is given as “binds”.

Turning to B4, the binding entry was “binds”.

B5: the binding result is recorded as “binds”.
